Measured values as given in the supplement of paper PMC12819154, “High-throughput peptide-centric local stability assay extends protein–ligand identification to membrane proteins, tissues and bacteria” (Nature Structural & Molecular Biology, 2025).
This is one part of the list. Small differences around the control level are noise.

Sequences of proteins named here, by UniProt entry; tags and fusion partners are left off. A change or cut given only in a name is not applied to a line headed by its entry.
UniProt Q9NRJ4: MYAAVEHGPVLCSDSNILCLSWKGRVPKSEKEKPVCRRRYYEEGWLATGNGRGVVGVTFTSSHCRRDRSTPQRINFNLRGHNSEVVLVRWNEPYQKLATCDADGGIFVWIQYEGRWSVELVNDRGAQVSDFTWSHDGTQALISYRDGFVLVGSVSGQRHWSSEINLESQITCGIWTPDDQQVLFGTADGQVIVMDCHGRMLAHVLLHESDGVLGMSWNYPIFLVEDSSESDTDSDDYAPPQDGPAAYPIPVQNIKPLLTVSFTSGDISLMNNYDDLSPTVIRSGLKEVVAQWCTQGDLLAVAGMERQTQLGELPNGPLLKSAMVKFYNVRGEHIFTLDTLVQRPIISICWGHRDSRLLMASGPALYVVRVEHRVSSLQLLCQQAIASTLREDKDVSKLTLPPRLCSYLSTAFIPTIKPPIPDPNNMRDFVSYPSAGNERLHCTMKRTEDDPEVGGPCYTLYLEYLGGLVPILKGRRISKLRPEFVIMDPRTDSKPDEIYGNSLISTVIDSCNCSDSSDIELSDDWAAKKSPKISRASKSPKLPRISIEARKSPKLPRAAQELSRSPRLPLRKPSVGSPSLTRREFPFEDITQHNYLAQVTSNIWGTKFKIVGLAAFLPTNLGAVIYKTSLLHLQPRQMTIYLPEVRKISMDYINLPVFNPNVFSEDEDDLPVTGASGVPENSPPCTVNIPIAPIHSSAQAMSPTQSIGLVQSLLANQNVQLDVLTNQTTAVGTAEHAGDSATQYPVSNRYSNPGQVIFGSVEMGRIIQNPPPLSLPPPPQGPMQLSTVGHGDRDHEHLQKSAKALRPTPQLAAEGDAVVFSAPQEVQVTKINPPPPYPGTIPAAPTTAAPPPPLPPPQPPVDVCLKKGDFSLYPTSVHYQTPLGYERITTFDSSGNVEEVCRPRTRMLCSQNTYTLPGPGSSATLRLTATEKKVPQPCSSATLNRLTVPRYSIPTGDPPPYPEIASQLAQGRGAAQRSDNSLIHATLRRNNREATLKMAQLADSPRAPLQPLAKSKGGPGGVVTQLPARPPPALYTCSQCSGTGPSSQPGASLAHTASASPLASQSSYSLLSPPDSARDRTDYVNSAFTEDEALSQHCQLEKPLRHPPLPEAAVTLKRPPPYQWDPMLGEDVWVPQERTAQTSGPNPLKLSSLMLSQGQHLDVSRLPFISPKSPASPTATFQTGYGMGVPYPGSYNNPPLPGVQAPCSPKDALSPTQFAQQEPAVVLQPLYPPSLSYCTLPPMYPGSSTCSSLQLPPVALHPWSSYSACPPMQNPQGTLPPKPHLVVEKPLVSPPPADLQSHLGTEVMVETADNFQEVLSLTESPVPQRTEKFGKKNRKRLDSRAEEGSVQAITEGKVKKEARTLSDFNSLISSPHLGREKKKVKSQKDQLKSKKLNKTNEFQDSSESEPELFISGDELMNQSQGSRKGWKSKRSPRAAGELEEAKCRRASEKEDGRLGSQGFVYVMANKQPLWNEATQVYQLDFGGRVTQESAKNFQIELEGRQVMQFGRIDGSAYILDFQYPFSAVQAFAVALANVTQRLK
UniProt Q9NW38: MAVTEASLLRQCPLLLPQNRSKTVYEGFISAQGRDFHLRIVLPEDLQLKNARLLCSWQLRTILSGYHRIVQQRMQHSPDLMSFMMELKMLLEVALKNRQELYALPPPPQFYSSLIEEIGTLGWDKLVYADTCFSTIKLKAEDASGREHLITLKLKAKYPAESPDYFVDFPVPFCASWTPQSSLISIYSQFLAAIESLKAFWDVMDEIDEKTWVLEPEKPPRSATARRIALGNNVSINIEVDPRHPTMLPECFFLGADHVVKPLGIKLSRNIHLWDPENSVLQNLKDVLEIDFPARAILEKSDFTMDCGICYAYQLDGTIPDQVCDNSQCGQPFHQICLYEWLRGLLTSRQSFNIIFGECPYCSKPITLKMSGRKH
UniProt Q9NSI8: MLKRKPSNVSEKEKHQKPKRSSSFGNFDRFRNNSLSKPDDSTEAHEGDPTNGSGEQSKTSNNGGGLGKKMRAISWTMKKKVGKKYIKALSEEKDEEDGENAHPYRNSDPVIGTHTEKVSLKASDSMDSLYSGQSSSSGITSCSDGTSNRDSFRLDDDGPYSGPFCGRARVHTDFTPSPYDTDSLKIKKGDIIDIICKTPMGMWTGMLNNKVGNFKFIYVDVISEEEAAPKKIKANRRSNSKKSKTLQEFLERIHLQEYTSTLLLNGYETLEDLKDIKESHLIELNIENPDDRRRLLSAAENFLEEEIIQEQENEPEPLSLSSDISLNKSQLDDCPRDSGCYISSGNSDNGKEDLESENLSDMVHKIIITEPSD
UniProt Q9HCU5: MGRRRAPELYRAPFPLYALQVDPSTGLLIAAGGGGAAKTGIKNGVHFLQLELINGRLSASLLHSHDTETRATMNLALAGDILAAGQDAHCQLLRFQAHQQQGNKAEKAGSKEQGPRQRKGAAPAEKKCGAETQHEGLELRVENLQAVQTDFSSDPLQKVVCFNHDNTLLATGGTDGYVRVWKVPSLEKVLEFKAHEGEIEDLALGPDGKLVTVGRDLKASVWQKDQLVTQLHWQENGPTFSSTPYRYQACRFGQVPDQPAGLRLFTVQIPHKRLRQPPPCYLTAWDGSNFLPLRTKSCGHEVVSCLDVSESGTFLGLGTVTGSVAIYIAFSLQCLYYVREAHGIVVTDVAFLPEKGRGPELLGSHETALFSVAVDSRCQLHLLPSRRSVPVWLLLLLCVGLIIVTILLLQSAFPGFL
UniProt Q9NRX4: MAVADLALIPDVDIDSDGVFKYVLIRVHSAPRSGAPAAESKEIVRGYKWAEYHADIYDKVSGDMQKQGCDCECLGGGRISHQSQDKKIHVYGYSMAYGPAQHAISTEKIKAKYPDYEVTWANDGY
UniProt Q9NQZ5: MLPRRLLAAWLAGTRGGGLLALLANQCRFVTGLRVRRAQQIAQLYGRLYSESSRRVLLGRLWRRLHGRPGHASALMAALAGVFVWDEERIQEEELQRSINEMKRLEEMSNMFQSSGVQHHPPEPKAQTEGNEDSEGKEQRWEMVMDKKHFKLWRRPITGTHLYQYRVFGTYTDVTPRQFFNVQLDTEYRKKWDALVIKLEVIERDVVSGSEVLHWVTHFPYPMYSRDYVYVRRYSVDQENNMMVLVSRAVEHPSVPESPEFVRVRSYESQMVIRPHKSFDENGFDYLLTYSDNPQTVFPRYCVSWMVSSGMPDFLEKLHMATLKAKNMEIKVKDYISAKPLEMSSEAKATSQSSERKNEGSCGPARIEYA
UniProt Q9NQC1, whole entry: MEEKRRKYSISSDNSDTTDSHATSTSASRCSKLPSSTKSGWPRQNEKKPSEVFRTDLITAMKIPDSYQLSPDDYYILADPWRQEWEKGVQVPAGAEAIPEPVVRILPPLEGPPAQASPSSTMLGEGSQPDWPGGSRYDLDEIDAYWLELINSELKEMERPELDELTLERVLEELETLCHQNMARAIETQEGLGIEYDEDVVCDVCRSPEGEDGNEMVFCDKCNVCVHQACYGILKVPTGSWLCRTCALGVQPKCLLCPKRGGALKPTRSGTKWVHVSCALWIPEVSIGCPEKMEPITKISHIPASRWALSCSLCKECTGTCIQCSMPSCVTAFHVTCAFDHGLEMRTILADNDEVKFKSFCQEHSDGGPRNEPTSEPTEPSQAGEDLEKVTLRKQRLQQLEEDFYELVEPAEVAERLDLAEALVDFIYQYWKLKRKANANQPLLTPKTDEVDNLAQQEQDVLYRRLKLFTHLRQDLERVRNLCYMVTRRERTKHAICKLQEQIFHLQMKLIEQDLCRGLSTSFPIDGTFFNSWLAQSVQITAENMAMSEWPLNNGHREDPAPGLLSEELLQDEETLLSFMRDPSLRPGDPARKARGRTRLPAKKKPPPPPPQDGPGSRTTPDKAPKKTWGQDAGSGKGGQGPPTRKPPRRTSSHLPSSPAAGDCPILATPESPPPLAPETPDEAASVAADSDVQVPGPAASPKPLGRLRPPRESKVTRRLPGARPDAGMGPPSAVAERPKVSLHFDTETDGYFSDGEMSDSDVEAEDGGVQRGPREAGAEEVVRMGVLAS
UniProt Q9NRM7: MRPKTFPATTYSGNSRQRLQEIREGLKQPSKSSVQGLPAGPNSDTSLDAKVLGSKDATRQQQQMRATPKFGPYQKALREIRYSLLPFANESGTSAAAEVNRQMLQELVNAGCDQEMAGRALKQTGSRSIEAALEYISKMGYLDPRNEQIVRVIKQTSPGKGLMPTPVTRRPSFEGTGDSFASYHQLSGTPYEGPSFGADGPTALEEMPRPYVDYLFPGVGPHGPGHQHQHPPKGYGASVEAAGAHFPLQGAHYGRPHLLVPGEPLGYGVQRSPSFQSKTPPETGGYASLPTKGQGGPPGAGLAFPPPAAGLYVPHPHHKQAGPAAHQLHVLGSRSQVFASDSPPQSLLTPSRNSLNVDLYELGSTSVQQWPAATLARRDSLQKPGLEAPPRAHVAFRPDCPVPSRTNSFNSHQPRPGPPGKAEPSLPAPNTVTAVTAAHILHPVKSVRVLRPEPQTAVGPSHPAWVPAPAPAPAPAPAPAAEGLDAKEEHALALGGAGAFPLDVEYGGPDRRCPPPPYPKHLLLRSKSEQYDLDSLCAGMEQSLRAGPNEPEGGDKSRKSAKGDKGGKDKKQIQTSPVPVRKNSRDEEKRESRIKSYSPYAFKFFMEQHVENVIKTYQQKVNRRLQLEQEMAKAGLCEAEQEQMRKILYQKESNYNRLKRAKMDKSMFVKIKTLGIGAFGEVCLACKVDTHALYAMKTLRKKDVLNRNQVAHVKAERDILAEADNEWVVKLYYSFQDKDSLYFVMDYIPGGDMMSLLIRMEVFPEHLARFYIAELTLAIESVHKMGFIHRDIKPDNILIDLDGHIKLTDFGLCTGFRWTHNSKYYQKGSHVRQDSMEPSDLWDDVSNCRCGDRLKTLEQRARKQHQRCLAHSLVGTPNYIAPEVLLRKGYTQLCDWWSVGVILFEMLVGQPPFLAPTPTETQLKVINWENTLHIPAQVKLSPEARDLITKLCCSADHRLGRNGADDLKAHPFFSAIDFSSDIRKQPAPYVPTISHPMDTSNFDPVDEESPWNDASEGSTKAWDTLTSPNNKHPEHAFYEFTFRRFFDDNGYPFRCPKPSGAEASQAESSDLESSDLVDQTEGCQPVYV
UniProt Q9NPI6: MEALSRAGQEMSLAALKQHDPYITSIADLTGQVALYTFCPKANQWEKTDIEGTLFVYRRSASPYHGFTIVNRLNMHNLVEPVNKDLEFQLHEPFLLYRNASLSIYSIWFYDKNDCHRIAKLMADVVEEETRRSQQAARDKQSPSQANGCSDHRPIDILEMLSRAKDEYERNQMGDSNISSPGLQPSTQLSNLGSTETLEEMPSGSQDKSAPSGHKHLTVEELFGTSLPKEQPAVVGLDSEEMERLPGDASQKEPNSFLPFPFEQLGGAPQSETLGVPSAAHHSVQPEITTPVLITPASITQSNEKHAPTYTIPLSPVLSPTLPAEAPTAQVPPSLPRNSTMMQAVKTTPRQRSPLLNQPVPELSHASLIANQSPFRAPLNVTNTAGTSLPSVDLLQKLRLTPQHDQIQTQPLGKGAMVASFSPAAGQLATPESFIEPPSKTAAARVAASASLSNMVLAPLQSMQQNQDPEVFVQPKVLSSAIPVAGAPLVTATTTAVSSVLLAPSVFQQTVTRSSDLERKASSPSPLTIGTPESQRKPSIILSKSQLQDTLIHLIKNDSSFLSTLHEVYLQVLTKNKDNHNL
UniProt Q9NQ48: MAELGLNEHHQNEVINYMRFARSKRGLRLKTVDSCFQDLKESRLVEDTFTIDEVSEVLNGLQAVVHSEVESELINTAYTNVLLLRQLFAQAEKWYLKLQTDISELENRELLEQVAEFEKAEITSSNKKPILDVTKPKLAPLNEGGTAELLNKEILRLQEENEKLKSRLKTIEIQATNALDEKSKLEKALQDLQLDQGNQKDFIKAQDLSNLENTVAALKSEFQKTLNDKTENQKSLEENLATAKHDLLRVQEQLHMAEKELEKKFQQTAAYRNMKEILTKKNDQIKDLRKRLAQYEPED
UniProt Q9NRH1: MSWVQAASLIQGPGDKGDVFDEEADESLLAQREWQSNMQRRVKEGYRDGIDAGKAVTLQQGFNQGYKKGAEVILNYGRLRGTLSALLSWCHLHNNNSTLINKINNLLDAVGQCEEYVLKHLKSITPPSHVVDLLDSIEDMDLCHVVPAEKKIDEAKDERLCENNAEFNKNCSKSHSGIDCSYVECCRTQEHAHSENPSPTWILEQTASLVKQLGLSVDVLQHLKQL
UniProt Q9NUK0: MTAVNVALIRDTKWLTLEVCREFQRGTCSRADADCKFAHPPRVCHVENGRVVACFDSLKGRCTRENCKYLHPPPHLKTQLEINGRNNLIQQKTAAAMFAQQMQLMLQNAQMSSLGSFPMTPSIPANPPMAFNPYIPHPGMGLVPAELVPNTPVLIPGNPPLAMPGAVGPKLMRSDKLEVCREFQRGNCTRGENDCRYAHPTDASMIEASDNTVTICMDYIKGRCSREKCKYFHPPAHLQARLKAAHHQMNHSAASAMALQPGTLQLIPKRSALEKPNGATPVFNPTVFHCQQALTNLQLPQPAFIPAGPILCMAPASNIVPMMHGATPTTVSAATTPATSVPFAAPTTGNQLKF

Compound: Cc1nc(Nc2ncc(C(=O)Nc3c(C)cccc3Cl)s2)cc(N2CCN(CCO)CC2)n1 [dasatinib]
Assay: log2 fold change of tryptic peptide abundance, ligand vs vehicle (limited proteolysis) (log2 ratio); higher = more trypsin-susceptible (destabilized)
Conditions: ligand concentration: 5 uM; sample: K562 cleared lysate

| Target | log2 fold change |
| --- | --- |
| RRAGD (peptide sequence: GLIDYNFHCFR, peptide start residue: 350) (UniProt Q9NQL2) | 0.133 |
| LMBRD1 (peptide sequence: DGRPLPAR, peptide start residue: 257) (UniProt Q9NUN5) | -0.135 |
| UniProt Q9NRJ4 (peptide sequence: TAQTSGPNPLK, peptide start residue: 1139) | 0.415 |
| EIF2B3 (peptide sequence: SVIGSSCLIK, peptide start residue: 373) (UniProt Q9NR50) | 0.122 |
| FANCL (peptide sequence: TILSGYHR, peptide start residue: 61) (UniProt Q9NW38) | -0.532 |
| UniProt Q9NRP4 (peptide sequence: QFSISESMKPK, peptide start residue: 114) | -0.286 |
| CENPM (peptide sequence: VCFLATGAGR, peptide start residue: 97) (UniProt Q9NSP4) | -0.261 |
| SLTM (peptide sequence: AGAGMITQHSSNASPINR, peptide start residue: 989) (UniProt Q9NWH9) | -0.239 |
| PRTFDC1 (peptide sequence: DLNHICVINEHGKEK, peptide start residue: 208) (UniProt Q9NRG1) | -0.384 |
| SAMSN1 (peptide sequence: DIKESHLIELNIENPDDRR, peptide start residue: 275) (UniProt Q9NSI8) | -0.306 |
| PANK4 (peptide sequence: FDELLHLASR, peptide start residue: 235) (UniProt Q9NVE7) | 0.747 |
| DDX18 (peptide sequence: ISDIQSQLEK, peptide start residue: 558) (UniProt Q9NVP1) | 0.0948 |
| UniProt Q9NRY4 (peptide sequence: IELSVLSYHSSFSIR, peptide start residue: 833) | 0.676 |
| PREB (peptide sequence: FGQVPDQPAGLR, peptide start residue: 252) (UniProt Q9HCU5) | -0.179 |
| ZCCHC3 (peptide sequence: THMSGSCTQDR, peptide start residue: 342) (UniProt Q9NUD5) | 0.439 |
| UniProt Q9NUP9 (peptide sequence: VLQSEFCNAVR, peptide start residue: 41) | 0.0453 |
| IARS2 (peptide sequence: ADLYLEGK, peptide start residue: 618) (UniProt Q9NSE4) | -0.575 |
| MED4 (peptide sequence: AASSSGEKEK, peptide start residue: 2) (UniProt Q9NPJ6) | 0.31 |
| DDX21 (peptide sequence: STYEQVDLIGK, peptide start residue: 392) (UniProt Q9NR30) | 0.106 |
| XAB2 (peptide sequence: HGNEDTIKEMLR, peptide start residue: 714) (UniProt Q9HCS7) | 0.369 |
| PHPT1 (peptide sequence: WAEYHADIYDK, peptide start residue: 49) (UniProt Q9NRX4) | 0.384 |

| Target | log2 fold change |
| --- | --- |
| NIT2 (peptide sequence: KIHLFDIDVPGK, peptide start residue: 112) (UniProt Q9NQR4) | -0.265 |
| UBN1 (peptide sequence: MLEEEKDKEQR, peptide start residue: 478) (UniProt Q9NPG3) | -0.309 |
| CHRAC1 (peptide sequence: MLKEEKR, peptide start residue: 106) (UniProt Q9NRG0) | 0.148 |
| MRPS18A (peptide sequence: MPVGSPLLR, peptide start residue: 174) (UniProt Q9NVS2) | 0.0753 |
| POLR3B (peptide sequence: VILIQEQLSK, peptide start residue: 177) (UniProt Q9NW08) | -0.426 |
| HINT3 (peptide sequence: KHIGNCR, peptide start residue: 91) (UniProt Q9NQE9) | -0.527 |
| DIABLO (peptide sequence: LAEAQIEELR, peptide start residue: 208) (UniProt Q9NR28) | -0.0703 |
| UniProt Q9NWV4 (peptide sequence: LMDSVALK, peptide start residue: 48) | 0.121 |
| LYRM4 (peptide sequence: QVHIGQLYSTDKLIIENR, peptide start residue: 69) (UniProt Q9HD34) | 0.107 |
| STARD7 (peptide sequence: AQTEGNEDSEGK, peptide start residue: 126) (UniProt Q9NQZ5) | 0.512 |
| UniProt Q9NVH0 (peptide sequence: TSPVTQQPQQK, peptide start residue: 36) | -0.288 |
| JADE2 (peptide sequence: TDLITAMK, peptide start residue: 50) (UniProt Q9NQC1) | -0.0493 |
| ZNHIT6 (peptide sequence: SQTGVQILMK, peptide start residue: 397) (UniProt Q9NWK9) | -0.192 |
| SMC4 (peptide sequence: VEILNEHRGEK, peptide start residue: 274) (UniProt Q9NTJ3) | 0.253 |
| LATS2 (peptide sequence: LTDFGLCTGFR, peptide start residue: 844) (UniProt Q9NRM7) | 0.414 |
| MBIP (peptide sequence: EAESMATHHLP, peptide start residue: 334) (UniProt Q9NS73) | 0.388 |
| SPATS2L (peptide sequence: TPEAPAHSEKPR, peptide start residue: 498) (UniProt Q9NUQ6) | -0.188 |
| TDP1 (peptide sequence: EKDISAPNDGTAQR, peptide start residue: 113) (UniProt Q9NUW8) | -0.0884 |
| UniProt Q9NW81 (peptide sequence: LGAAVAPEGNQKK, peptide start residue: 25) | 0.472 |
| DCP1A (peptide sequence: HLTVEELFGTSLPK, peptide start residue: 216) (UniProt Q9NPI6) | 0.0784 |
| RNF216 (peptide sequence: MEEGNNNEEVIHLNNFHCHR, peptide start residue: 1) (UniProt Q9NWF9) | 0.537 |

Exported with each value named: part of the list above.
MRPS18A (peptide sequence: MPVGSPLLR, peptide start residue: 174) (UniProt Q9NVS2)
  log2 fold change: 0.0753
POLR3B (peptide sequence: VILIQEQLSK, peptide start residue: 177) (UniProt Q9NW08)
  log2 fold change: -0.426

Remaining list, next part.

| Target | log2 fold change |
| --- | --- |
| NRIP3 (peptide sequence: DMQPHNILQR, peptide start residue: 57) (UniProt Q9NQ35) | -0.36 |
| FBXO28 (peptide sequence: ATEAIDSLR, peptide start residue: 351) (UniProt Q9NVF7) | 0.5 |
| DIAPH3 (peptide sequence: KVSVEDFLTDLNNFR, peptide start residue: 991) (UniProt Q9NSV4) | 0.794 |
| THG1L (peptide sequence: VVVYPSNQTLK, peptide start residue: 160) (UniProt Q9NWX6) | 0.398 |
| FAM118A (peptide sequence: KMSPRTGDAK, peptide start residue: 97) (UniProt Q9NWS6) | -0.391 |
| PFDN4 (peptide sequence: KAAAEDVNVTFEDQQK, peptide start residue: 7) (UniProt Q9NQP4) | -0.0596 |
| MLXIPL (peptide sequence: GKPPAPSPR, peptide start residue: 493) (UniProt Q9NP71) | 0.18 |
| ZDBF2 (peptide sequence: VDSVRNLKK, peptide start residue: 1795) (UniProt Q9HCK1) | -0.0415 |
| VPS45 (peptide sequence: HSSNSLPGLMMDLR, peptide start residue: 398) (UniProt Q9NRW7) | -0.412 |
| EXOSC4 (peptide sequence: DVHTLLDR, peptide start residue: 223) (UniProt Q9NPD3) | -0.117 |
| PNPO (peptide sequence: GLPTGDSPLGPMTHR, peptide start residue: 235) (UniProt Q9NVS9) | -0.518 |
| UniProt Q9NSQ0 (peptide sequence: MEHLAQLR, peptide start residue: 251) | -0.0547 |
| LZTFL1 (peptide sequence: VQEQLHMAEKELEKK, peptide start residue: 250) (UniProt Q9NQ48) | -0.175 |
| UniProt Q9NRH1 (peptide sequence: GAEVILNYGR, peptide start residue: 69) | 0.245 |
| UniProt Q9NUK0 (peptide sequence: YLHPPPHLK, peptide start residue: 68) | 0.059 |
| PDLIM7 (peptide sequence: KKITGEIMHALK, peptide start residue: 346) (UniProt Q9NR12) | 0.573 |
| UniProt Q9NT68 (peptide sequence: KPSKYCSWK, peptide start residue: 366) | 0.0781 |
| BAZ1A (peptide sequence: EKADALEAK, peptide start residue: 330) (UniProt Q9NRL2) | 0.297 |
| HPS4 (peptide sequence: GEVLGLSSSLGK, peptide start residue: 347) (UniProt Q9NQG7) | -0.291 |
| RASSF1 (peptide sequence: ALVCLDCCGPR, peptide start residue: 99) (UniProt Q9NS23) | 0.0548 |

Reprinted at random: 2 records from the list

| Target | log2 fold change |
| --- | --- |
| PDLIM7 (peptide sequence: KKITGEIMHALK, peptide start residue: 346) (UniProt Q9NR12) | 0.573 |
| UniProt Q9NUK0 (peptide sequence: YLHPPPHLK, peptide start residue: 68) | 0.059 |
